Reference: patent publication US12528767B2, “HDAC6 inhibitors and uses thereof” (Eikonizo Therapeutics, Inc., priority 2019, dated 2026)
For at least one compound, name, drawing or mass did not settle the structure.

Columns and labels:
[1] = tested on: adult primary rat dorsal root ganglia (DRG); assay: In vitro chemotherapy-induced peripheral neuropathy in rat DRGs treated with cisplatin; assay type: cell-based, Sprague Dawley rat; details: 5 μM compound + 0.5 mM cisplatin, 4 days
Procedure: ACY-1083, obtained from MedChem Express, is a published HDAC6-selective inhibitor and was used as a benchmark. Blinded DMSO was used as an additional negative control. […] Nerve degeneration was evaluated by blebs per area as visualized by fluorescent imaging of beta tubulin staining. Axon area was also evaluated by fluorescent imaging of beta tubulin staining.
Select exemplary compounds were evaluated for prevention of nerve degeneration in an in vitro chemotherapy induced neuropathy model using adult primary rat dorsal root ganglia (DRG). Compounds were blinded for treatment and analysis, using DMSO as a vehicle control. […] Blebs (fragments) signify the beginning of the nerve degeneration process. Total axon area is related to neuron survival and is a more general measure of neuroprotection.
Dissociation solution (100 mL of HBSS with 2 mL of HEPES (1 M, pH 7.25)) was prepared and precooled to 4° C. on study day 1. A 24 well cell culture plate was coated with ECL. Each well was coated with 0.3 mL of ECL solution (1:25 in sterile PBS) and incubated overnight at 37° C. ECL solution was aspirated and the well plate was rinsed with neurobasal medium on study day 2. […]

[2] = tested on: chemotherapy-induced peripheral neuropathy (CIPN) mouse model; assay: In vivo chemotherapy-induced peripheral neuropathy (CIPN) in mice treated with cisplatin; details: male C57BL/6 mice, cisplatin […] IP, 16 30 mg/kg PO, ACY-1083 10 mg/kg IP

O=C(NO)c1cc(F)c2c(c1)CCN(C1CC3(CCCCC3)C1)C2 [compound 16]
Axon area compared to vehicle in the presence of cisplatin (FIG. 3B) [1]: increased axon area | Nerve degeneration: blebs per area compared to vehicle in the presence of cisplatin (FIG. 3A) [1]: decreased blebs per area | Body weight compared to vehicle in the presence of cisplatin (FIGS. 4C and 4D) ([2]; QD Day 1 thru Day 17): increased body weight | Mechanical allodynia (Von Frey test) at Day 16 compared to vehicle in the presence of cisplatin (FIG. 4E) ([2]; Day 16): improved mechanical allodynia | Intraepidermal nerve fiber (IENF) density compared to vehicle in the presence of cisplatin (FIG. 4F) ([2]; day 17): rescued IENF density
